Results published in PMC9834401.

The chains behind the UniProt entries cited, without tags or fusion partners.
UniProt Q8TEW0: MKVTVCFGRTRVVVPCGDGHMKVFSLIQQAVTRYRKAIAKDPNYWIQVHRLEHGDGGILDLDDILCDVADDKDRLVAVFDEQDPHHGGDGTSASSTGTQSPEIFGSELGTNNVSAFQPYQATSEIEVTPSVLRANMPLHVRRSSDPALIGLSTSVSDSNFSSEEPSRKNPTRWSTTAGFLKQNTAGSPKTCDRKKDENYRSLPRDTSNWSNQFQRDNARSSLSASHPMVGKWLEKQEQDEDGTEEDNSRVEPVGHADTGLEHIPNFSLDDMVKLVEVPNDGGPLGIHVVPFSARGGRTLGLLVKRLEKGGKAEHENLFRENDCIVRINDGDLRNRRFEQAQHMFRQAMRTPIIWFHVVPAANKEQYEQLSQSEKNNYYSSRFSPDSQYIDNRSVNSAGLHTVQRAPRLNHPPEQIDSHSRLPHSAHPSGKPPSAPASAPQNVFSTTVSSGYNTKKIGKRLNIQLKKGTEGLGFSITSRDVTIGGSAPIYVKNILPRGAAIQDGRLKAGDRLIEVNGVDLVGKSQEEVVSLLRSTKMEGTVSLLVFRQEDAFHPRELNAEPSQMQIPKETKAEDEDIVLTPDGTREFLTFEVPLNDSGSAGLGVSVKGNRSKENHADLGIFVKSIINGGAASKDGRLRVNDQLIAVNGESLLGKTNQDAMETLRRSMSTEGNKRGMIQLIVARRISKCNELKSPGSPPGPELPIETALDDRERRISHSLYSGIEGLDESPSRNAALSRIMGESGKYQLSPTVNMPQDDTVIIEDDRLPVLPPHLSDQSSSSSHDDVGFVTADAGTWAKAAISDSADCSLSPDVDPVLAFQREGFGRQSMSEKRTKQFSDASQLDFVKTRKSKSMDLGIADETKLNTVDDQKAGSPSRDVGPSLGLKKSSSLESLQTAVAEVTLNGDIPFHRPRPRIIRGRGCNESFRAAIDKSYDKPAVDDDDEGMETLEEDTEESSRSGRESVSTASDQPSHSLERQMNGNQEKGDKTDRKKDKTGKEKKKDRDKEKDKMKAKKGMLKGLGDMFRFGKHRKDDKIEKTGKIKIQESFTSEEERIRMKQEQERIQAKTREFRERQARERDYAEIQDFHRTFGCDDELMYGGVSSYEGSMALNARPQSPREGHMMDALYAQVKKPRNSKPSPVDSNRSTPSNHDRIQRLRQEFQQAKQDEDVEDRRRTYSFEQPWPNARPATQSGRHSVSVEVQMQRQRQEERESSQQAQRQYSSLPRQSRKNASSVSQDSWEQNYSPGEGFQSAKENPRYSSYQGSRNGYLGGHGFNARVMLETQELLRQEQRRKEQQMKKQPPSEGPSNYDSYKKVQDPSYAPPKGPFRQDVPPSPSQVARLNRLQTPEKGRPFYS
UniProt Q14204: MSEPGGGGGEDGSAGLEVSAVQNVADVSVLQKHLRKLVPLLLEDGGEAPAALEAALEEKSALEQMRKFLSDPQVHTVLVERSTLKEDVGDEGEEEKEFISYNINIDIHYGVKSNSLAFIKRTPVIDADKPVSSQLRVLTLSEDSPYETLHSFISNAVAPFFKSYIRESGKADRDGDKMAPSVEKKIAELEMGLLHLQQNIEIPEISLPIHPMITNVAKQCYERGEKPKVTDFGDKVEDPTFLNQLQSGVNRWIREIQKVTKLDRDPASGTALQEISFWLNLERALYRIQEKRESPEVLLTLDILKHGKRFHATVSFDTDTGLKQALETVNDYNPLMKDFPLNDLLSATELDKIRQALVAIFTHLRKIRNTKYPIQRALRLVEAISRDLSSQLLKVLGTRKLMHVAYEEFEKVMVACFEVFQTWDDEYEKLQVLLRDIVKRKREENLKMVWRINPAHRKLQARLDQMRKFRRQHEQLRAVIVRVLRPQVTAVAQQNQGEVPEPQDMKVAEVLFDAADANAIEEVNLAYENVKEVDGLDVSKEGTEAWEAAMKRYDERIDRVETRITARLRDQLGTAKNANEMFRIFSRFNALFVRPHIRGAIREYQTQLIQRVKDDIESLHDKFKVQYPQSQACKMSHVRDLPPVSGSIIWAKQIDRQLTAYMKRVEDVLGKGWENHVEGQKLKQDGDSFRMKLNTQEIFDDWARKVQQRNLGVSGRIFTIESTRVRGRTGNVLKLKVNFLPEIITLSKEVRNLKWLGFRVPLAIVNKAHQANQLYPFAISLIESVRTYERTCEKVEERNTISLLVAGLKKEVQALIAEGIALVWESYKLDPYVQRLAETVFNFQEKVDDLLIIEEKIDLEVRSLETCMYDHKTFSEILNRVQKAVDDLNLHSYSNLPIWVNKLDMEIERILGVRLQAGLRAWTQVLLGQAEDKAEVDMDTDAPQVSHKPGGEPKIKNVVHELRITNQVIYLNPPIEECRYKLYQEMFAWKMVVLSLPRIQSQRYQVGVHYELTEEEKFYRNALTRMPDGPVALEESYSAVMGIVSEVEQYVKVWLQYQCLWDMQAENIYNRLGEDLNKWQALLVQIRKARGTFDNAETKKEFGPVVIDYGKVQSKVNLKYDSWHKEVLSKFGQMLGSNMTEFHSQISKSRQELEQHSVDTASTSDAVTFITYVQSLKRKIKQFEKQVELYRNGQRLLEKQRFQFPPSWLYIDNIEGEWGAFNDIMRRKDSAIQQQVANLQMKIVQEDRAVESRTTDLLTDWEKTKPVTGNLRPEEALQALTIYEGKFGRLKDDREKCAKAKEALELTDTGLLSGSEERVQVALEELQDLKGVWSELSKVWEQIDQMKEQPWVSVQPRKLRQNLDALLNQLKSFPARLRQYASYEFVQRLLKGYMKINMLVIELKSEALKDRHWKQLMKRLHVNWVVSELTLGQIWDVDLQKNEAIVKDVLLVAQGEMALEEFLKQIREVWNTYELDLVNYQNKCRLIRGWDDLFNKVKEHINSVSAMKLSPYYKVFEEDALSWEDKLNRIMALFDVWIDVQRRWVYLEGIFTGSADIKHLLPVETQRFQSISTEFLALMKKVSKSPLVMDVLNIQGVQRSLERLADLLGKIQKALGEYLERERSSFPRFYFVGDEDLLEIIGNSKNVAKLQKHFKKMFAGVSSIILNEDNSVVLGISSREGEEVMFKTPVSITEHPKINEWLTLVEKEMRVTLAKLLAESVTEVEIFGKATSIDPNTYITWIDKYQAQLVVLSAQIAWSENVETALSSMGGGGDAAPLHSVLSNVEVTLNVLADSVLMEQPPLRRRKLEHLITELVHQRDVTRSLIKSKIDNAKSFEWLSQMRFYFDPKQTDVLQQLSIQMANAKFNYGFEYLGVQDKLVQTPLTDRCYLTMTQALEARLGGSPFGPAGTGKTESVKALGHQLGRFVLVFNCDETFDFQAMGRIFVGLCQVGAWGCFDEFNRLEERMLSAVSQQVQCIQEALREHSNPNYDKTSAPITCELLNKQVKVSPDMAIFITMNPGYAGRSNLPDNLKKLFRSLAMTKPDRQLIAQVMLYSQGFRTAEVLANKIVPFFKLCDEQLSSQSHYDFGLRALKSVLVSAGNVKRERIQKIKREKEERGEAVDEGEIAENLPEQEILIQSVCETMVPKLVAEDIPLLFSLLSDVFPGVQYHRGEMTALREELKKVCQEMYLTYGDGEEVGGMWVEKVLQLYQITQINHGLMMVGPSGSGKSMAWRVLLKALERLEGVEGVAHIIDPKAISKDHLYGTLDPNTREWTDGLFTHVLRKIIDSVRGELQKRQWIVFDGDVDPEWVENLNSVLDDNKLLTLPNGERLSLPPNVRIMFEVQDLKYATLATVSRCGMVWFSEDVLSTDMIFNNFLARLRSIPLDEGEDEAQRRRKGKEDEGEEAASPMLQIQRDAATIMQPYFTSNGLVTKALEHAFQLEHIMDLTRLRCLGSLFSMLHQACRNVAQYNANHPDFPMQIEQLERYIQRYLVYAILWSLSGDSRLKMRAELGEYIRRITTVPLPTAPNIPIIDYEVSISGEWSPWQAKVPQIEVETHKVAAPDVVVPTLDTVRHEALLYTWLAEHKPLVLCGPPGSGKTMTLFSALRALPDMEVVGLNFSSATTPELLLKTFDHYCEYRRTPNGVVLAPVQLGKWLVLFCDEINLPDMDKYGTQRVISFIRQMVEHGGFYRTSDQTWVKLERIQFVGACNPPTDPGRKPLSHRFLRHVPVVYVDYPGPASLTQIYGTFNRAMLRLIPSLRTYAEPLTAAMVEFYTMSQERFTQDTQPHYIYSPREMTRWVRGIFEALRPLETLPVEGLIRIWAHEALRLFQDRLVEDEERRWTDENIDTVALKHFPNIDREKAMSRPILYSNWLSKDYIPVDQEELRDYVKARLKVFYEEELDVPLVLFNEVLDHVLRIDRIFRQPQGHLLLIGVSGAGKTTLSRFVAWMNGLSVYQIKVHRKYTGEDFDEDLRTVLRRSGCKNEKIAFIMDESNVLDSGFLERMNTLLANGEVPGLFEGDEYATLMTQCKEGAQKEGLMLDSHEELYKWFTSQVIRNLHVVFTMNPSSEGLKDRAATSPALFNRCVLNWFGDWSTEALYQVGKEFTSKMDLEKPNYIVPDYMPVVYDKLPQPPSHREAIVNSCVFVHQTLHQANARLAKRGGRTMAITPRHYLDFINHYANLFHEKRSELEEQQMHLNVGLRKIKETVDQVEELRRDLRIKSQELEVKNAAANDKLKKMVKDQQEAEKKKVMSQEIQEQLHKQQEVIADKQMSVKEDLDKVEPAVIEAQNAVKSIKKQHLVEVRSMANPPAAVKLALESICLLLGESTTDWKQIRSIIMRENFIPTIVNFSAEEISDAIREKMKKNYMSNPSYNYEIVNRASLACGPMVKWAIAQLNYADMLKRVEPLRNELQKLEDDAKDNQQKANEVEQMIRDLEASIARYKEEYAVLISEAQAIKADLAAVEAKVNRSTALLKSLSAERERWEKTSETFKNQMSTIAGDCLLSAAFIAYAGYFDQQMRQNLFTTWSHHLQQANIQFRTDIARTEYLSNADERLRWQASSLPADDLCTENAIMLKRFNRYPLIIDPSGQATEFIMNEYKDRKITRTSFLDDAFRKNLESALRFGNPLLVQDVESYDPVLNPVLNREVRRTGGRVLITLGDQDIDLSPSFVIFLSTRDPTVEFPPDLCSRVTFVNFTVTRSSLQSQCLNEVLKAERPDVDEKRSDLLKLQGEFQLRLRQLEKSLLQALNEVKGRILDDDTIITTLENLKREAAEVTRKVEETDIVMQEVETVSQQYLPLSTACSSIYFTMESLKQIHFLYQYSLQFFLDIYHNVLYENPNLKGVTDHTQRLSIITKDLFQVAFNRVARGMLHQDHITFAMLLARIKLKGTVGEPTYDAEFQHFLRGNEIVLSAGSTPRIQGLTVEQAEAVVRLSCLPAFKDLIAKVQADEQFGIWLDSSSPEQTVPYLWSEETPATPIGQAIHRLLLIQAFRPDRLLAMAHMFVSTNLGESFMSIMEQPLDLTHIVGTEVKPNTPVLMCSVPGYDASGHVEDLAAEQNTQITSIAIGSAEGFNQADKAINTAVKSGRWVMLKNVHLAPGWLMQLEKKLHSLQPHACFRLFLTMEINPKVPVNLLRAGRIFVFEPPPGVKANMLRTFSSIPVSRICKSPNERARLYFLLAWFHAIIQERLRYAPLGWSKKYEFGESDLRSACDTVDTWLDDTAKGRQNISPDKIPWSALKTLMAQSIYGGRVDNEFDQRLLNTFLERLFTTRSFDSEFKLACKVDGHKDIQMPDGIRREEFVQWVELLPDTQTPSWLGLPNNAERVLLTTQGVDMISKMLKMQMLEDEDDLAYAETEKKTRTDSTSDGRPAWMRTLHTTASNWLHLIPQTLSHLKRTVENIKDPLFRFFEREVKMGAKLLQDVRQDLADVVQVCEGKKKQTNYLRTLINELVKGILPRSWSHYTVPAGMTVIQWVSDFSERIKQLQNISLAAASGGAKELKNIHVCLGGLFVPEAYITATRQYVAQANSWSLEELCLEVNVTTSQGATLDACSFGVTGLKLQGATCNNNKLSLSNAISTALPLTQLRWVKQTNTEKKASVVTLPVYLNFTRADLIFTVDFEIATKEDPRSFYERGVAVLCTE
UniProt P14635: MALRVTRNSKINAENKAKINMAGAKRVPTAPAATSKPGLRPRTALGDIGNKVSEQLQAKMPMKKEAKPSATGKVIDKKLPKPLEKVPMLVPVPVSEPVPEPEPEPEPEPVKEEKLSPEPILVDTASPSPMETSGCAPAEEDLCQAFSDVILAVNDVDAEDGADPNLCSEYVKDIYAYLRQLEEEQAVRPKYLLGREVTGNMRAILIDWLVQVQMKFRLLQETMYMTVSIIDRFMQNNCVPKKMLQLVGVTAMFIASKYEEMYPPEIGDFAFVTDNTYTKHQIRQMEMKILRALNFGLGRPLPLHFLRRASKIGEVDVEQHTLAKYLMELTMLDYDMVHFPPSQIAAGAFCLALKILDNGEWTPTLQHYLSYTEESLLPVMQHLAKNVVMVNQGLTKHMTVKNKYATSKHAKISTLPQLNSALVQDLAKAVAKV

T1: GFP-LGN (UniProt P81274)
T1 sequence: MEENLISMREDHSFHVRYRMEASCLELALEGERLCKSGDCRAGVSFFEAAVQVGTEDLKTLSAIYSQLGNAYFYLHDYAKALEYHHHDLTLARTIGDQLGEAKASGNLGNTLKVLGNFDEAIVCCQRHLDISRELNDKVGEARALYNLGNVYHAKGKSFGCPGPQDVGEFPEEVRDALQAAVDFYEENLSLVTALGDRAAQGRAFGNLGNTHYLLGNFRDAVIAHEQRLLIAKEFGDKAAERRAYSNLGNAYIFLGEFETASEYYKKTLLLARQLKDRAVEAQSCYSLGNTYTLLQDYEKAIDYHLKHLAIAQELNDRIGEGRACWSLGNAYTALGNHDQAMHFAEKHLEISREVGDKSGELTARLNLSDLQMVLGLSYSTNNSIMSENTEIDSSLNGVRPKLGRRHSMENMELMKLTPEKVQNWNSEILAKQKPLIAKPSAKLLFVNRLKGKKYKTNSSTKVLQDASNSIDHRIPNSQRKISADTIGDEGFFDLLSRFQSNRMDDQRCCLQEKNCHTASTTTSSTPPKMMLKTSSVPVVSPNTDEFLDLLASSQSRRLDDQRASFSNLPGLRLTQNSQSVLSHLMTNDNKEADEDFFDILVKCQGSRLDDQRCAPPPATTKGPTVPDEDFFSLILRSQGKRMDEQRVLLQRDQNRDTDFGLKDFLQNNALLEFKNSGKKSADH


Biological target: T1, GFP-LGN
Assay: affinity purification with mass spectrometry; GFP-Trap beads on lysates of MCF-10A cells stably expressing GFP-LGN, arrested in metaphase (RO-3306, then MG-132); mild lysis buffer (50 mM Tris pH 7.4, 150 mM NaCl, 0.5 mM EDTA, 0.5% NP40); on-bead tryptic digestion, LC-MS/MS; proteins in the GFP control and CRAPome contaminants removed

Molecule | binding
PAR3 (from UniProt Q8TEW0 1-1356) | binds
γ-tubulin (TUBG1) (from UniProt P23258 1-451) | binds
Dynein (DYNC1H1) (from UniProt Q14204 1-4646) | binds
EIF3E (from UniProt P60228 1-445) | binds
nuclear mitotic apparatus protein (NuMA) (from UniProt Q14980 1-2115) | binds
PLK1 (from UniProt P53350 1-603) (enzyme) | binds
Cyclin B1 (CCNB1) (from UniProt P14635 1-433) | binds
CLASP1 (from UniProt Q7Z460 1-1538) | binds
HAUS6 (protein, UniProt Q7Z4H7 1-955) MSSASVTAFEKEHLWMYLQALGFEPGPATIACGKIVSHTHLGVNMFDKLNRDAFHIISYFLFQVLDQSLTKEVFKFCWPPFDQKSDTEFRKHCCEWIKRISGECGSSFPQVVGSLFLSPGGPKFIHLMYHFARFVAMKYIKSNSKNSSHHFVETFNIKPQDLHKCIARCHFARSRFLQILQRQDCVTQKYQENAQLSVKQVRNLRSECIGLENQIKKMEPYDDHSNMEEKIQKVRSLWASVNETLMFLEKEREVVSSVLSLVNQYALDGTNVAINIPRLLLDKIEKQMFQLHIGNVYEAGKLNLLTVIQLLNEVLKVMKYERCQADQARLTVDLHYLEKETKFQKERLSDLKHMRYRIKDDLTTIRHSVVEKQGEWHKKWKEFLGLSPFSLIKGWTPSVDLLPPMSPLSFDPASEEVYAKSILCQYPASLPDAHKQHNQENGCRGDSDTLGALHDLANSPASFLSQSVSSSDRNSVTVLEKDTKMGTPKEKNEAISKKIPEFEVENSPLSDVAKNTESSAFGGSLPAKKSDPFQKEQDHLVEEVARAVLSDSPQLSEGKEIKLEELIDSLGSNPFLTRNQIPRTPENLITEIRSSWRKAIEMEENRTKEPIQMDAEHREVLPESLPVLHNQREFSMADFLLETTVSDFGQSHLTEEKVISDCECVPQKHVLTSHIDEPPTQNQSDLLNKKVICKQDLECLAFTKLSETSRMETFSPAVGNRIDVMGGSEEEFMKILDHLEVSCNKPSTNKTMLWNSFQISSGISSKSFKDNDFGILHETLPEEVGHLSFNSSSSSEANFKLEPNSPMHGGTLLEDVVGGRQTTPESDFNLQALRSRYEALKKSLSKKREESYLSNSQTPERHKPELSPTPQNVQTDDTLNFLDTCDLHTEHIKPSLRTSIGERKRSLSPLIKFSPVEQRLRTTIACSLGELPNLKEEDILNKSLDAKEPPSDLTR | binds
Annexin A1 (ANXA1) (protein, UniProt P04083 1-346) MAMVSEFLKQAWFIENEEQEYVQTVKSSKGGPGSAVSPYPTFNPSSDVAALHKAIMVKGVDEATIIDILTKRNNAQRQQIKAAYLQETGKPLDETLKKALTGHLEEVVLALLKTPAQFDADELRAAMKGLGTDEDTLIEILASRTNKEIRDINRVYREELKRDLAKDITSDTSGDFRNALLSLAKGDRSEDFGVNEDLADSDARALYEAGERRKGTDVNVFNTILTTRSYPQLRRVFQKYTKYSKHDMNKVLDLELKGDIEKCLTAIVKCATSKPAFFAEKLHQAMKGVGTRHKALIRIMVSRSEIDMNDIKAFYQKMYGISLCQAILDETKGDYEKILVALCGGN | binds
S100A11 (S100 Ca^2+-binding protein A11) (protein, UniProt P31949 1-105) MAKISSPTETERCIESLIAVFQKYAGKDGYNYTLSKTEFLSFMNTELAAFTKNQKDPGVLDRMMKKLDTNSDGQLDFSEFLNLIGGLAMACHDSFLKAVPSQKRT | binds
Serum Amyloid A-1 protein (SAA1) (protein, UniProt P0DJI8 19-122) RSFFSFLGEAFDGARDMWRAYSDMREANYIGSDKYFHARGNYDAAKRGPGGAWAAEVITDARENIQRFFGHGAEDSLADQAANEWGRSGKDPNHFRPAGLPEKY | binds
INSC (protein, UniProt Q1MX18 1-579) MRRPPGNGEAASEGPGGWGLWGVQESRRLCCAGHDRCKQALLQIGINMMALPGGRHLDSVTLPGQRLHLMQVDSVQRWMEDLKLMTECECMCVLQAKPISLEEDAQGDLILAGGPGPGDPLQLLLKRGWVISTELRRIGQKLAQDRWARVHSMSVRLTCHARSMVSEYSAVSRNSLKEMGEIEKLLMEKCSELSAVTERCLQVENEHVLKSMKACVSETLSMLGQHFGQLLELALTREVQALVRKIDASDNIYTTESTTGNLFSLTQEGAPLCRIIAKEGGVVALFKVCRQDSFRCLYPQALRTLASICCVEEGVHQLEKVDGVLCLADILTDNSHSEATRAEAAAVVAQVTSPHLPVTQHLSSFLESMEEIVTALVKLCQEASSGEVFLLASAALANITFFDTMACEMLLQLNAIRVLLEACSDKQRVDTPYTRDQIVTILANMSVLEQCASDIIQENGVQLIMGMLSEKPRSGTPAEVAACERVQQKAAVTLARLSRDPDVAREAVRLSCMSRLIELCRSPSERNSSDAVLVACLAALRRLAGVCPEGLQDSDFQQLVQPRLVDSFLLCSNMEESFV | binds
NUMB (protein, UniProt P49757 1-651) MNKLRQSFRRKKDVYVPEASRPHQWQTDEEGVRTGKCSFPVKYLGHVEVDESRGMHICEDAVKRLKAERKFFKGFFGKTGKKAVKAVLWVSADGLRVVDEKTKDLIVDQTIEKVSFCAPDRNFDRAFSYICRDGTTRRWICHCFMAVKDTGERLSHAVGCAFAACLERKQKREKECGVTATFDASRTTFTREGSFRVTTATEQAEREEIMKQMQDAKKAETDKIVVGSSVAPGNTAPSPSSPTSPTSDATTSLEMNNPHAIPRRHAPIEQLARQGSFRGFPALSQKMSPFKRQLSLRINELPSTMQRKTDFPIKNAVPEVEGEAESISSLCSQITNAFSTPEDPFSSAPMTKPVTVVAPQSPTFQANGTDSAFHVLAKPAHTALAPVAMPVRETNPWAHAPDAANKEIAATCSGTEWGQSSGAASPGLFQAGHRRTPSEADRWLEEVSKSVRAQQPQASAAPLQPVLQPPPPTAISQPASPFQGNAFLTSQPVPVGVVPALQPAFVPAQSYPVANGMPYPAPNVPVVGITPSQMVANVFGTAGHPQAAHPHQSPSLVRQQTFPHYEASSATTSPFFKPPAQHLNGSAAFNGVDDGRLASADRHTEVPTGTCPVDPFEAQWAALENKSKQRTNPSPTNPFSSDLQKTFEIEL | binds

These are yes or no findings as the source states them, for the method shown. Binding seen in cells or lysates may run through a third protein. Here binding means that the protein was enriched with, or labelled near, the bait; the list need not be complete. Where a sequence is shown, tags or fusion partners need not be part of it.
